Data: publication PMC10439913
These are yes or no findings as the source states them, for the method shown.

The chains behind the UniProt entries cited, without tags or fusion partners. Where a name states a change or a piece, a line headed by the entry shows the natural chain unless it says otherwise. Residues count along the entry.
UniProt P11717: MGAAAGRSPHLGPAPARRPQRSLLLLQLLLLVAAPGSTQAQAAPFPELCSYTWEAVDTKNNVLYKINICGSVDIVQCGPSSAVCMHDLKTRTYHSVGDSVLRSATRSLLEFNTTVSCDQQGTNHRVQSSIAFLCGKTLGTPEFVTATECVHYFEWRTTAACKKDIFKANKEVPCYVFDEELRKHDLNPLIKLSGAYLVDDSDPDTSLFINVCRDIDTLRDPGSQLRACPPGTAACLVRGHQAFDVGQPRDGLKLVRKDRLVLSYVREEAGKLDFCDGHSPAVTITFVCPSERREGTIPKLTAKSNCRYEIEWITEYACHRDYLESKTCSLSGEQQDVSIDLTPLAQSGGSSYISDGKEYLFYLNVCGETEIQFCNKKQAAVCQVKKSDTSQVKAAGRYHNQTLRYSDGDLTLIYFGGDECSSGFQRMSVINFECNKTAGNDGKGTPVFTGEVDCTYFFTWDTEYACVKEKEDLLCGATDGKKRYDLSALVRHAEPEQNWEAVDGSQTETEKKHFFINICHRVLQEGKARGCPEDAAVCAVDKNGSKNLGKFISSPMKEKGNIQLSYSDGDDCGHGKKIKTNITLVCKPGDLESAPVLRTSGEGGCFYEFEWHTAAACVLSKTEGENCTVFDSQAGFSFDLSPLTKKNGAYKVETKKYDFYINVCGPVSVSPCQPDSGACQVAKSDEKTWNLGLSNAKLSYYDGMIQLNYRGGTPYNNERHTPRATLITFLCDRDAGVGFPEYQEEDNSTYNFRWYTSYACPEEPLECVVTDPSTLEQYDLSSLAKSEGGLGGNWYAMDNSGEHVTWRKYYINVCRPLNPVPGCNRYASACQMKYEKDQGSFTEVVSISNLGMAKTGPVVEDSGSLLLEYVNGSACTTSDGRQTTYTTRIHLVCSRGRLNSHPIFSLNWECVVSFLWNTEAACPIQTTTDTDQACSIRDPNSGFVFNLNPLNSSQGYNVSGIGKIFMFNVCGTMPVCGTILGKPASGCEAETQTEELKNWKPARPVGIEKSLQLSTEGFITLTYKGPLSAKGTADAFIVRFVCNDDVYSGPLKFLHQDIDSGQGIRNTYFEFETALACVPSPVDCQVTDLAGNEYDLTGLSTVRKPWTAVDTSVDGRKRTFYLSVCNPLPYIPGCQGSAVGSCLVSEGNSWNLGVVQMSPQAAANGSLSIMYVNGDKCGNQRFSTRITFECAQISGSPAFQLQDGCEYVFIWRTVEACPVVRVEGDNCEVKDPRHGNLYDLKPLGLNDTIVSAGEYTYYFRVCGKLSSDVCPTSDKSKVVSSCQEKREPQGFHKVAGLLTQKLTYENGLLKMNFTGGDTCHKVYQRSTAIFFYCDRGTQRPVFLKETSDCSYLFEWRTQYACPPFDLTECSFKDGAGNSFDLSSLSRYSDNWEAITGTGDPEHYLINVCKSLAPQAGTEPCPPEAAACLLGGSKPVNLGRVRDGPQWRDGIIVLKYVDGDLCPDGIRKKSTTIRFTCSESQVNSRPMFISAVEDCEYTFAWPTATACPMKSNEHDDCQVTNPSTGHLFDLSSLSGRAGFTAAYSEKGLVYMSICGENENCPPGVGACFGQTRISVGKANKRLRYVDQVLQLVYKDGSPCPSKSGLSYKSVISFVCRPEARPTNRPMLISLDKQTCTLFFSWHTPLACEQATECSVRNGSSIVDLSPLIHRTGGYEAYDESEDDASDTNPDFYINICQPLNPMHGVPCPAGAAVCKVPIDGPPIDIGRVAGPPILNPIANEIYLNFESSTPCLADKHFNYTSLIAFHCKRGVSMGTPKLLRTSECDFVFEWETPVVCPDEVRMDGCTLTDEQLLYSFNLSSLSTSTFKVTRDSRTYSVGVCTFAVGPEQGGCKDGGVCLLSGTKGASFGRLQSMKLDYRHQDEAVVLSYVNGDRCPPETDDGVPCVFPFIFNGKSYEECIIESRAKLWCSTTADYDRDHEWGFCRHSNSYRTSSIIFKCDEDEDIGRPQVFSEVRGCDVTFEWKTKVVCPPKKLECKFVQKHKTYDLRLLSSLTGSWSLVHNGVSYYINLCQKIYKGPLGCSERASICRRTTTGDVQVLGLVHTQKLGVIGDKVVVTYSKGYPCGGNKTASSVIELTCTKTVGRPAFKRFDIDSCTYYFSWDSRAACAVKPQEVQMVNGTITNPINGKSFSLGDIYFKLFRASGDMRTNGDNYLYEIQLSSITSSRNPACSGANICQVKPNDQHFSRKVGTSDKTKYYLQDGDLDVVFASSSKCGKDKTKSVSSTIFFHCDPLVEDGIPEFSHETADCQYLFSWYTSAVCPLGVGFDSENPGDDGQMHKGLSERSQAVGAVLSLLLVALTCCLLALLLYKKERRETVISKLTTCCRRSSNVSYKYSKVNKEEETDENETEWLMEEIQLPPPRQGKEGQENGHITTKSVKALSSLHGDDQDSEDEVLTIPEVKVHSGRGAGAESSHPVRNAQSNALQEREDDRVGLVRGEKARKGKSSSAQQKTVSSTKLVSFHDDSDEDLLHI
UniProt P05019, residues 49-118: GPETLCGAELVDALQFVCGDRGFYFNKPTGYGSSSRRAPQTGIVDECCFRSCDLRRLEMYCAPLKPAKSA

Molecular target: Domain-11 of human M6P/IGF2R (D11) (human) (UniProt P11717)
Assay: radioligand binding; competition of cold ligand with [125I]-monoiodotyrosyl-Tyr2-IGF2 for immobilized D11 (as in ref. 33); affinity relative to IGF2; both purified

- binding: no binding
Substance: IGF1 (from UniProt P05019 49-118) (ligand)
